Source: publication PMC5706827
Results are given in words; binding and its absence hold for the method and conditions named. In cells and extracts the contact can be indirect. Some results given as binding are weak or reduced against the parent protein; the word gives no strength.

Amino acid sequences for entries named in this document (tags omitted).
UniProt Q14694: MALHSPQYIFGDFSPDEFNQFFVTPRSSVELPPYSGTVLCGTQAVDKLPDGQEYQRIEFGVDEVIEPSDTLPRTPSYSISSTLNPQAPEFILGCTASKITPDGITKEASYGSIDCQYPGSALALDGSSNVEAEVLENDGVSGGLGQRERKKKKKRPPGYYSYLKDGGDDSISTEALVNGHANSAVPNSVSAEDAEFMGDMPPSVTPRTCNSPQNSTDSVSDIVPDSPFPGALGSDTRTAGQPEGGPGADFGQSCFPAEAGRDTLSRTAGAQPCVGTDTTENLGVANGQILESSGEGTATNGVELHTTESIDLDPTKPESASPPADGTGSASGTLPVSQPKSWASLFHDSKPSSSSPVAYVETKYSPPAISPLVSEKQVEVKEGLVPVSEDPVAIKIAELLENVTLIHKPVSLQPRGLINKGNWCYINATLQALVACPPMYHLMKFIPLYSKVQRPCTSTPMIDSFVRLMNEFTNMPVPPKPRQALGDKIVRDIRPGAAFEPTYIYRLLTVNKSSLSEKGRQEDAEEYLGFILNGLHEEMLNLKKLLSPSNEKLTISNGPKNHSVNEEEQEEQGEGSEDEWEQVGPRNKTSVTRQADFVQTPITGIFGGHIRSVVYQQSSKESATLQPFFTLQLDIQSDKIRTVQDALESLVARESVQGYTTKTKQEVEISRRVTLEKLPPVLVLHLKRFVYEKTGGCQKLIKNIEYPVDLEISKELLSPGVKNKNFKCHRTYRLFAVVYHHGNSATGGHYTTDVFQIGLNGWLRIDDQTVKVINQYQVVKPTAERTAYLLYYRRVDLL
UniProt O00425: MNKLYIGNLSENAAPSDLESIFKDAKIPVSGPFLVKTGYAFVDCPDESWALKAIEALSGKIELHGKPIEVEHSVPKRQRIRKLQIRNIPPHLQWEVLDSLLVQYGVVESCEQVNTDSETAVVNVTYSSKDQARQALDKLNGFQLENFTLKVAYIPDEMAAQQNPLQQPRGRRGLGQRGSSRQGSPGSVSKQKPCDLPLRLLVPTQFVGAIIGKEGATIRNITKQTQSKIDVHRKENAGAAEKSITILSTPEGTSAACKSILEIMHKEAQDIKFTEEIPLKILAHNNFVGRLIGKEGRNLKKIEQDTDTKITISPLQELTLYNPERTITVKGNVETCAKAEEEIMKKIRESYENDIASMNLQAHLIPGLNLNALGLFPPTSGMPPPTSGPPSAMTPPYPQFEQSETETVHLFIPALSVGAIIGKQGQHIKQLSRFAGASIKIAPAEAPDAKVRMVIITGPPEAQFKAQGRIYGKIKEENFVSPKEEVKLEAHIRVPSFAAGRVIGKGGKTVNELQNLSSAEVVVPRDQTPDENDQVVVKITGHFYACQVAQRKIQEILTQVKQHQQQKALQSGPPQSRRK

Key:
[1] = target: USP10-Flag (ubiquitin specific peptidase 10) (UniProt Q14694); test: co-IP; HEK293T cells co-transfected, 24 h; RIPA lysis buffer with protease inhibitors; immunoprecipitation with mouse anti-Flag mAb and protein-A Sepharose, six PBST washes; blot with anti-GFP
[2] = target: endogenous USP10 (ubiquitin specific peptidase 10) (human (endogenous in HEK293T)) (UniProt Q14694); test: co-IP; endogenous proteins, HEK293T lysate; immunoprecipitation with anti-USP10 antibody (normal rabbit IgG as control); blot with anti-IGF2BP3

Row | Substance | binding [1] | binding [2]
1 | IGF2BP3-GFP (from UniProt O00425 1-579) | binds | –
2 | endogenous IGF2BP3 (from UniProt O00425 1-579) | – | binds
